Assay results reported in patent US20210137809A1 (Biosolution Co., Ltd, priority 2017, published 2021).

Assay: peptide synthesis
Conditions: whole synthesis

Which “final purity (method not given)” value does the source give for “Arg-Pro-Lys-Pro-Gln-Gln-Phe-Phe-Gly-Leu-Met-NH2” here?
The value was 85% or more.
